For at least one entry, the source does not settle the construct or the ends of the probe. The comparison behind a weaker result is the experiment's own reference, which may not be listed here.
Legend:
Experiment in all cases: EMSA
[1] = target: ASCL2 DBD R5K R55K (human) (UniProt Q99929); details: lower affinity than CAGCTG probe; 32P EMSA: ~50 nM probe, 0.5/1/2 uM protein, 30 min, reagents as in Feng et al., gel at 4 C; recombinant protein; protein details: N-terminal 6xHis, mScarlet fusion; label: 32P (SRI primer strand)
[2] = target: ASCL2 DBD wild type (human) (UniProt Q99929); details: lower affinity than CAGCTG probe; 32P EMSA: ~50 nM probe, 0.5/1/2 uM protein, 30 min, reagents as in Feng et al., gel at 4 C; recombinant protein; protein details: N-terminal 6xHis, mScarlet fusion; label: 32P (SRI primer strand)
[3] = target: ASCL2 DBD R5K+V13R R55K,V63R (human) (UniProt Q99929); details: lower affinity than CACGTG probe; 32P EMSA: ~50 nM probe, 0.5/1/2 uM protein, 30 min, reagents as in Feng et al., gel at 4 C; recombinant protein; protein details: N-terminal 6xHis, mScarlet fusion; label: 32P (SRI primer strand)
[4] = target: ASCL2 DBD V13R V63R (human) (UniProt Q99929); details: lower affinity than CACGTG probe; 32P EMSA: ~50 nM probe, 0.5/1/2 uM protein, 30 min, reagents as in Feng et al., gel at 4 C; recombinant protein; protein details: N-terminal 6xHis, mScarlet fusion; label: 32P (SRI primer strand)

Amino acid sequences for entries named in this document (tags omitted). Residues count along the entry.
UniProt Q99929, 50-102 R55K: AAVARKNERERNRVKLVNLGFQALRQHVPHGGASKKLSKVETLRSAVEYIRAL
UniProt Q99929, 50-102: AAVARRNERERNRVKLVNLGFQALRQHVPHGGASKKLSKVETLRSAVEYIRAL
UniProt Q99929, 50-102 R55K/V63R: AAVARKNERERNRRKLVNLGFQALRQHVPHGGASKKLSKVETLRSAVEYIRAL
UniProt Q99929, 50-102 V63R: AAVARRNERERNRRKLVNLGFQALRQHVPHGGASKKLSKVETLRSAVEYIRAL

Row | Sequence | binding result [1] | binding result [2] | binding result [3] | binding result [4]
1 | TAGCCAATAACTTCGTCCCTCACGTGCATATAAGGAAGATCTAACCACCAATTTGG (double strand) [CACGTG probe] | binds more weakly | binds more weakly | – | –
2 | TAGCCAATAACTTCGTCCCTCAGCTGCATATAAGGAAGATCTAACCACCAATTTGG (double strand) [CAGCTG probe] | – | – | binds more weakly | binds more weakly

Source: paper PMC12392098
